No constants are given. Whether binding was seen depends on the method and setting. Binding can be weak; no strength is given.
Legend:
[1] = molecular target: bovine serum albumin (BSA) (bovine) (UniProt P02769); assay: native gel or EMSA; cathodic native PAGE at pH 7.6, BMP-2 alone or mixed with albumin, silver stain; both purified
[2] = molecular target: bovine serum albumin (BSA) (bovine) (UniProt P02769); assay: native gel or EMSA; 2D blue native/SDS-PAGE (non-reducing second dimension), BMP-2 mixed with 30 ug BSA, silver stain; both purified
[3] = molecular target: human serum albumin (HSA) (human) (UniProt P02768); assay: AF4/MALS (asymmetric flow field-flow fractionation with multi-angle light scattering); mixture of 0.20 mg/mL BMP-2 and 1.15 mg/mL HSA (in MES) injected into PBS pH 7.4; MALS/dRI; both purified

The chains behind the UniProt entries cited, without tags or fusion partners. Where a name states a change or a piece, a line headed by the entry shows the natural chain unless it says otherwise. Residues count along the entry.
UniProt P02769, residues 25-607: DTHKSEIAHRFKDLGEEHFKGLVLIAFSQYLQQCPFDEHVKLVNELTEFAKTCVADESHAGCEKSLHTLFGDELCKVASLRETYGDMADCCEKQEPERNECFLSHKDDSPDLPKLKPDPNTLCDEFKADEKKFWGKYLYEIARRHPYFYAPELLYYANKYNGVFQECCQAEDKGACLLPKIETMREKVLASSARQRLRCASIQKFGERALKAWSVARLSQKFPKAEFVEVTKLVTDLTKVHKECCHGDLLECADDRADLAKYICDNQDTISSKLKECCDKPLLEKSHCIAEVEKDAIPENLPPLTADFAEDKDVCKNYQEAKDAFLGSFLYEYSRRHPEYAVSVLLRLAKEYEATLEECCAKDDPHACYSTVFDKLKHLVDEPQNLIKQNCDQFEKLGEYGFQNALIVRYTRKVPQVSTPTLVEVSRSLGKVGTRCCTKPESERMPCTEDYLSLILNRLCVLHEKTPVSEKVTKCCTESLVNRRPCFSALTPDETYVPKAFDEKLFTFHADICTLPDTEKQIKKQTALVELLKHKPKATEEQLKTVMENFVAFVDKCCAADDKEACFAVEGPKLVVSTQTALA
UniProt P02768, residues 25-609: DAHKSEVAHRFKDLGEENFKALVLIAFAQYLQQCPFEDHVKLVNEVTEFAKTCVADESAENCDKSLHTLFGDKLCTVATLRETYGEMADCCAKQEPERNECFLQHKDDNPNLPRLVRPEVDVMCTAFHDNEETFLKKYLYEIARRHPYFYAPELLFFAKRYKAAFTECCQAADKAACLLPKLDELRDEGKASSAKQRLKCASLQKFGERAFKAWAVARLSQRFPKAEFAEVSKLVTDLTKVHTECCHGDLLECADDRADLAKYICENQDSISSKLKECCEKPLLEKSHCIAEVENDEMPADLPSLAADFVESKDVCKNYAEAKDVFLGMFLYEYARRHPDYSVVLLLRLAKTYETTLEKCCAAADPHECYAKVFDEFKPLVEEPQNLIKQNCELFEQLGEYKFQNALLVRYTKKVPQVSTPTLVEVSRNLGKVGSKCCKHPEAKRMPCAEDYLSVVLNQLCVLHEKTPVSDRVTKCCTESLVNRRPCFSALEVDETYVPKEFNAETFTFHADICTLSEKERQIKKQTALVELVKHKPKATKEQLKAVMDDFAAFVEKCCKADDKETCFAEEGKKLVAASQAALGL
UniProt P12643: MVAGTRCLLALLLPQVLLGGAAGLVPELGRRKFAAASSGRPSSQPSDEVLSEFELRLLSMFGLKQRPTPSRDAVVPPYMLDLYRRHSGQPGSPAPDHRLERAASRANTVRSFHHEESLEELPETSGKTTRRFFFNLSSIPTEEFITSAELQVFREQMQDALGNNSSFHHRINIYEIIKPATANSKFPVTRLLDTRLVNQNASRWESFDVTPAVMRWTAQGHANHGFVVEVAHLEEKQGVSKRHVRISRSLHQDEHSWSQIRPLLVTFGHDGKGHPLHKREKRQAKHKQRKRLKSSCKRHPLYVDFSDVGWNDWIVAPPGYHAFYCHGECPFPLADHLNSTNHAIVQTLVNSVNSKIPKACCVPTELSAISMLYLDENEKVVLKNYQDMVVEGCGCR

Measured: binding

E. coli-derived recombinant human bone morphogenetic protein 2 (rhBMP-2) (from UniProt P12643) (ligand)
binds: all assays above

From article PMC7760923
